Data on 60 compounds can be found in PubChem BioAssay AID2685 (National Center for Advancing Translational Sciences (NCATS), 2010).

The structures appear in SMILES notation. Some of the results follow. These are further read-outs of the screen, such as a control signal, another cell line or another target. No call is given for them. Most of these compounds were active or inconclusive in the main read-out, so they are no random draw. The note in brackets gives the kind of curve behind each potency; many fits are weak.

A short description of this test: qHTS Assay for Lipid Storage Modulators in Drosophila S3 Cells.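 On cell number change: cells counted by Cell Tracker Red CMTPX staining in the red channel.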 The following applies: BODIPY lipid droplet fluorescence, 18-24 h; for cell number change: measured here: cell count max response, cells fed with added oleic acid. A digest of the protocol:
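Drosophila S3 cells loaded with oleic acid (400 uM, as added) and compounds at several concentrations; lipid droplets imaged by 488-nm laser-scanning cytometry, 500–530 nm intensity and object ratio to cell channel. Percent activity normalized to 20 uM Triacsin C.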

[1] abbreviates: measured here: lipid fluorescence (Fed channel) AC50, cells fed with added oleic acid.
[2] abbreviates: measured here: cell number channel AC50, cells fed with added oleic acid.

`CCOC(=O)/C(C#N)=C/C1=C(N2CCOCC2)CC(C)(C)OC1`: the cell number change amounted to 15.9%. In addition, the AC50 (usually the concentration at which the activity in the assay is half-maximal) under setting [1] was 0.259 µM [rising, full curve, poor fit]. In the case of `CCOC(=O)C1CCCN(c2c(NCC3CCCO3)c(=O)c2=O)C1` (stereo not drawn), the cell number change turned out to be 31.1%. Further, the AC50 under setting [2] was 6.51 µM [rising, partial curve, poor fit]. Turning to `NC(=O)c1ccccc1OCC(=O)N1CCCc2ccccc21`, the cell number change came to 15.8%.

For `COc1ccc(C(=O)O/N=C(\N)c2ccccc2)cc1`, the cell number change is -27.8%. Further, the AC50 under setting [1] was 29.1 µM [rising, partial curve]. As to `NS(=O)(=O)c1ccc(CCNC2CC(=O)N(Cc3ccccc3)C2=O)cc1` (stereo not drawn), the cell number change was 11.7%. For the same compound, the AC50 under setting [1] is 9.2 µM [rising, single point]. In the case of `COc1ccc2nc(-c3ccccc3)nc(SCC(=O)NCC3CCCO3)c2c1` (stereo not drawn), the cell number change is -14.4%. With `COc1ccccc1N1CCN(C(=O)c2cc3c(=O)n(C)c4ccccc4c3n2C)CC1`, the cell number change stood at 2.39%. Moreover, under setting [1], the AC50 is 1.46 µM [rising, full curve, poor fit]. Turning to `COc1ccccc1N(CC(=O)Nc1c(C)cccc1C)S(C)(=O)=O`, the cell number change worked out at 2.3%. Further, under setting [1], the AC50 is 3.26 µM [rising, partial curve].

For the compound `NS(=O)(=O)c1ccc(-c2ccc(C=O)o2)cc1`, the cell number change is 12.5%. Under setting [2], the AC50 was 0.58 µM [rising, single point]. Turning to `CCN(CC)S(=O)(=O)c1cccc(C(=O)NCC(=O)OCC(=O)NCc2ccccc2)c1`, the cell number change was -12.7%. Besides, the AC50 under setting [1] was 16.4 µM [falling, partial curve]. `C=C1SC(Nc2c(C)cc(C)cc2C)=NC12CCCCC2`: the cell number change was -44.4%. In addition, under setting [2], the AC50 was 5.17 µM [falling, full curve]. In addition, under setting [1], the AC50 is 2.31 µM [falling, full curve].

For `COc1ccc(-n2ncc(C(=O)NC3CC3)c2C2CCN(C(=O)OC(C)(C)C)CC2)cc1`, the concentration at half-maximal activity (AC50) under setting [1] is 18.4 µM [falling, partial curve]. As to `COc1ccc(-c2nc(N)n(C(=O)c3ccc(C)cc3)n2)cc1`, the cell number change is -0.5%. For the same compound, under setting [1], the AC50 is 20.6 µM [rising, single point]. As to `COc1ccccc1NC(=O)CCS(=O)(=O)c1cc2c(cc1Cl)NC(=O)CO2`, the cell number change is -14.1%. Besides, under setting [1], the AC50 is 16.4 µM [falling, partial curve].

As to `CC(C)CC(c1nnnn1CC1CCCO1)N1CCN(c2nc3ccccc3s2)CC1` (stereo not drawn), the cell number change was 0.419%. For the same compound, the AC50 under setting [1] is 23.1 µM [rising, single point]. Turning to `Cc1ccc(C(=O)NCCSc2c(C)[nH]c3ccccc23)cc1[N+](=O)[O-]`, the cell number change was 0.832%.

In the case of `Cc1ccc(C(=O)OCC(=O)c2c[nH]c3ccccc23)cc1S(=O)(=O)N1CCCCC1`, the cell number change was -1.54%. Under setting [1], the AC50 was 2.31 µM [rising, full curve]. Turning to `Cc1ccc(NCc2n[nH]c(=S)n2-c2ccccc2)cc1Cl`, the cell number change is -30.6%. Moreover, the AC50 under setting [2] is 20.6 µM [falling, partial curve]. Moreover, the AC50 under setting [1] is 25.9 µM [falling, partial curve]. For `CCOCCCNC(=O)NC12CC3CC(CC(C3)C1)C2`, the cell number change is -2.92%. Besides, the half-maximal activity concentration (AC50) under setting [1] was 3.66 µM [falling, partial curve, poor fit]. Turning to `COc1cc(C)nc(Oc2ccc(OCc3ccccc3)nn2)n1`, the cell number change turned out to be 275%. The AC50 under setting [2] was 23.1 µM [rising, partial curve]. Besides, the AC50 under setting [1] is 3.26 µM [rising, partial curve].

For the compound `Cc1ccc[n+](-c2nc([O-])sc2/C=N/Nc2ccc([N+](=O)[O-])cc2)c1`, the cell number change amounted to 6.84%. Further, the AC50 under setting [1] was 0.82 µM [falling, partial curve, poor fit].

Consider `CC(C)[C@H](NC(=O)C1CCN(S(=O)(=O)c2ccccc2)CC1)C(=O)NCc1ccncc1`, for which, under setting [1], the AC50 is 6.51 µM [falling, single point]. Regarding `Cc1snc(S(=O)(=O)/C(C#N)=N/Nc2cccc(C(F)(F)F)c2)c1C#N`, the cell number change is 52%. Further, the AC50 under setting [2] is 18.4 µM [rising, single point]. For `O=C(NNC(=S)Nc1ccc(Cl)cc1)c1ccccc1OC(F)F`, the cell number change was -48.9%. For the same compound, the AC50 under setting [2] is 23.1 µM [falling, partial curve]. Also, the AC50 under setting [1] is 25.9 µM [falling, partial curve]. As to `COc1ccc(NC(=O)CSc2nnc(-c3cccs3)n2Cc2ccco2)cc1OC`, the cell number change is -7.85%. Moreover, the AC50 under setting [1] was 2.91 µM [rising, full curve, poor fit].

Turning to `COc1ccc(CCN2CC(C(=O)NCc3c(C)n[nH]c3C)CCC2=O)cc1` (stereo not drawn), the cell number change was -8.38%. In addition, the AC50 under setting [1] was 25.9 µM [falling, single point].

Consider `COCCN(C(=O)c1ccccc1F)c1nnc(-c2ccc(OC)cc2)s1`, for which the AC50 under setting [1] is 20.6 µM [falling, partial curve]. For the compound `C[C@@H](NC(=O)c1ncn(Cc2ccccc2)c1C(=O)N[C@H](C)c1ccccc1)c1ccccc1`, the cell number change was -43.3%. Besides, the AC50 under setting [2] is 29.1 µM [falling, single point]. Besides, the half-maximal activity concentration (AC50) under setting [1] was 29.1 µM [falling, single point]. In the case of `Cc1cc(C(=O)NNC(=O)c2ccccc2F)c2ccccc2n1`, the cell number change amounted to 26.9%. Moreover, the AC50 under setting [1] is 29.1 µM [rising, single point]. In the case of `CCOC(=O)C1CCN(c2cc(=O)n(Cc3ccc(F)cc3)c(=O)[nH]2)CC1`, the AC50 under setting [1] was 4.61 µM [falling, single point]. With `Cc1ccccc1/C=N/NC(=O)c1cccnc1`, the cell number change stood at 48.9%. Besides, the AC50 under setting [2] was 20.6 µM [rising, partial curve, poor fit].

In the case of `O=C(CCc1nc2ccccc2c(=O)[nH]1)N1CCN(S(=O)(=O)c2ccccc2Br)CC1`, the cell number change was -34.5%. Further, the AC50 under setting [2] is 13 µM [falling, partial curve, poor fit].

On to `O=C(COC(=O)c1cccc(S(=O)(=O)N2CCN(c3ccccc3)CC2)c1)NCc1ccco1`, for which the cell number change is -8.93%.

As to `CCN(CC)c1nc(N)c2c(N)nc3c(c2c1C#N)CC(c1ccccc1)O3` (stereo not drawn), the cell number change was -34.7%. Besides, the AC50 under setting [2] is 10.3 µM [falling, partial curve]. Also, under setting [1], the AC50 was 2.91 µM [falling, single point].

As for `COC(=O)Cn1c(C)c(C(C)=O)c(C(C)=O)c1C`, the cell number change was determined as 8.7%. The AC50 under setting [1] was 29.1 µM [falling, single point]. Consider `COc1cc2c(c(OC)c1OC)-c1c(cc3c(c1OC)OCO3)C1OC2[C@@H](C)[C@H]1C` (stereo partly drawn), for which the AC50 under setting [1] is 29.1 µM [falling, single point].

`CCOc1cnc(C(=O)NNC(=O)C(Br)C(C)C)o1` (stereo not drawn): the cell number change is -15.3%.

For the compound `CCOc1ccc(-c2noc(CCC(=O)NCC3CCCO3)n2)cc1OC` (stereo not drawn), the cell number change is -14.3%. With `Cc1c(Cl)cccc1S(=O)(=O)Nc1ccnn1C`, the cell number change was -1.93%. For the same compound, the AC50 under setting [1] is 2.91 µM [falling, single point].

Turning to `O=C(CSc1nnc(-c2ccco2)n1Cc1ccco1)NCc1ccccc1`, the cell number change amounted to 39.1%. For the same compound, the AC50 under setting [2] was 18.4 µM [rising, single point]. For the compound `O=C(NCC(c1ccco1)N1CCc2ccccc21)c1ccccc1Br` (stereo not drawn), the AC50 under setting [2] was 6.51 µM [rising, single point] and the AC50 under setting [1] is 6.51 µM [rising, partial curve, poor fit].

Consider `CCOC(=O)c1cnc(-n2nc(C)cc2C)nc1NC1CCCC1`, for which the cell number change was -43.6%. Also, under setting [2], the AC50 was 29.1 µM [falling, single point]. Also, the AC50 under setting [1] is 29.1 µM [falling, single point]. With `N#Cc1cccc(NCC(=O)Nc2ccc3c(c2)OCCO3)c1`, the cell number change came to 16.2%.

`Clc1ccc(Oc2cnc3ccccc3n2)cc1`: the cell number change was -8.62%. Also, the AC50 under setting [1] was 29.1 µM [falling, single point]. Turning to `COc1cc2c(cc1OC)CN(c1nc(CN3CCOCC3)nc3sc4c(c13)CCCC4)CC2`, the cell number change is -1.19%. Also, the AC50 under setting [1] was 5.8 µM [rising, single point]. With `CCN(CC)c1ccc(NC(=O)CN2CCN(c3ccccn3)CC2)cc1`, the cell number change is 35.1%. Moreover, the AC50 under setting [2] was 4.11 µM [rising, partial curve, poor fit].

As for `OCCN1CCN(c2nc(-c3ccccc3)c3cc(Br)ccc3n2)CC1`, the cell number change was -15.3%. Moreover, the AC50 under setting [2] was 0.092 µM [falling, full curve, poor fit]. Besides, the AC50 under setting [1] is 29.1 µM [rising, single point]. Consider `CCOC(=O)Cn1cc(/C=N/NC(=O)c2cc3ccccc3o2)c2ccccc21`, for which the cell number change was -75.7%. Also, the AC50 under setting [2] was 14.6 µM [falling, partial curve]. Under setting [1], the AC50 is 7.31 µM [falling, partial curve].

With `Cc1cc(NC(=O)CCC(=O)N(Cc2ccco2)C2(C(=O)NC3CCCCC3)CCCC(C)C2)no1` (stereo not drawn), the cell number change is -13.5%. For the same compound, under setting [1], the AC50 was 0.411 µM [falling, full curve, poor fit]. Consider `CC(Cc1cccs1)NC(=O)CCCn1nnnc1CN1CCOCC1` (stereo not drawn), for which the cell number change was determined as 0.88%.

For the compound `COc1ccc2nc(SCC(=O)c3ccco3)[nH]c2c1`, the cell number change is -10.4%. Besides, the AC50 under setting [1] was 0.58 µM [falling, single point].

Take `COC(=O)c1ccc(OC(=O)C23CCC(C)(C(=O)O2)C3(C)C)cc1` (stereo not drawn): the cell number change was -26.3%. The same measure, in the same setting: next, `COC(=O)/C=C1/S/C(=N/NC(=O)c2ccccc2C)NC1=O`: -14.8%.

Consider `Cc1ccc(NC(=O)COc2ccc(Br)cn2)cc1`, for which the cell number change was determined as 15.2%. For the same compound, the AC50 under setting [1] is 6.51 µM [falling, single point].

`CC(=O)Nc1ccc(NC(=O)COC(=O)CCNS(=O)(=O)c2c(Cl)cccc2Cl)cc1`: the cell number change is -19.7%. As to `COC(=O)c1ccc(NC(=O)CCCCCn2nnc3ccccc3c2=O)cc1`, the cell number change was 27%. Take `CCOC(=O)c1c(NC(=O)CSc2cn(CC)c3ccccc23)sc2c1CCC2`: the cell number change came to 37%. Moreover, the AC50 under setting [2] was 5.8 µM [rising, full curve, poor fit]. The AC50 under setting [1] was 5.8 µM [rising, full curve, poor fit]. As for `CC(C)OCCCNC(=O)CN1CCN(Cc2ccccc2Cl)C1=O`, the cell number change is 31.2%. Moreover, the AC50 under setting [2] was 6.51 µM [rising, full curve, poor fit]. In the case of `O=C(NC(=S)Nc1c(Cl)ccc2nsnc12)c1ccco1`, the AC50 by setting is: under setting [2], 5.8 µM [rising, single point]; under setting [1], 18.4 µM [rising, single point]. As for `Cc1nnc(NC(=O)Nc2cccc(Cl)c2)s1`, the AC50 is, setting by setting: under setting [2], 4.11 µM [rising, single point]; under setting [1], 4.61 µM [rising, single point].
